Assay results: patent US20210246220A1
Results are given in words; binding and its absence hold for the method and conditions named. Some results given as binding are weak or reduced against the parent protein; the word gives no strength.

Amino acid sequences for entries named in this document (tags omitted). Residues count along the entry.
UniProt Q02223, residues 1-54: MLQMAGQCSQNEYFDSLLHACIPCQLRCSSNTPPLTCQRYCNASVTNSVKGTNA

Target: BCMA-Fc antigen (UniProt Q02223)
Assay: ELISA; plate coated with 100 ng BCMA-Fc; crushed bacterial supernatant with scFv; mouse anti-HA-tag antibody, then AP-labeled anti-mouse IgG; positive when the absorbance ratio to the control well is greater than 2.1

B1: scFv_20 (scFv, not shown: small tags and cut ends)
scFv: DIQMTQSPSSLSASVGDRVTITCSASQDISNYLNWYQQKPGKAPKLLIYYTSNLHSGVPSRFSGSGSGTDFTLTISSLQPEDFATYYCQQYRKLAWTFGQGTKLEIKRGGGGSGGGGSGGGGSGGGGSQVQLVQSGAEVKKPGSSVKVSCKASGGTFSNYWMHWVRQAPGQGLEWMGATYRGHSDTYYNQKFKGRVTITADKSTSTAYMELSSLRSEDTAVYYCARGSIFNGYDVLDNWGQGTLVTVSS
- binding: binds

B2: scFv_46 (scFv, not shown: small tags and cut ends)
scFv: DIQMTQSPSSLSASVGDRVTITCSASQDISNYLNWYQQKPGKAPKLLIYYTSNLHSGVPSRFSGSGSGTDFTLTISSLQPEDFATYYCQQRLTPSPFTFGQGTKLEIKRGGGGSGGGGSGGGGSGGGGSQVQLVQSGAEVKKPGSSVKVSCKASGGTFSNYWMHWVRQAPGQGLEWMGATYRGHSDTYYNQKFKGRVTITADKSTSTAYMELSSLRSEDTAVYYCARNTALLDNWGQGTLVTVSS
- binding: binds
